Laboratory results reported in PubChem BioAssay AID588590 (National Center for Advancing Translational Sciences (NCATS), 2011).
Screen size: about 390,000 compounds; about 4,000 (1%) were called active. Inconclusive results, whose numbers are uncertain, are shown with a selection of clear calls. The call rests on the fitted dose curve; in most records, active means well fitted inhibition curve with a large enough effect; inconclusive means small, poorly fitted or top-dose-only effect, or another doubt; inactive means no such curve, though single readings can be large or run the other way. Potencies beside an inconclusive call are fits to weak or partial responses and may not hold up. More than one record can exist for a structure, and the calls need not agree.

By UniProt entry, the sequences of proteins in these tests, tags left out. Where a name states a change or a piece, a line headed by the entry shows the natural chain unless it says otherwise.
UniProt Q9UNA4: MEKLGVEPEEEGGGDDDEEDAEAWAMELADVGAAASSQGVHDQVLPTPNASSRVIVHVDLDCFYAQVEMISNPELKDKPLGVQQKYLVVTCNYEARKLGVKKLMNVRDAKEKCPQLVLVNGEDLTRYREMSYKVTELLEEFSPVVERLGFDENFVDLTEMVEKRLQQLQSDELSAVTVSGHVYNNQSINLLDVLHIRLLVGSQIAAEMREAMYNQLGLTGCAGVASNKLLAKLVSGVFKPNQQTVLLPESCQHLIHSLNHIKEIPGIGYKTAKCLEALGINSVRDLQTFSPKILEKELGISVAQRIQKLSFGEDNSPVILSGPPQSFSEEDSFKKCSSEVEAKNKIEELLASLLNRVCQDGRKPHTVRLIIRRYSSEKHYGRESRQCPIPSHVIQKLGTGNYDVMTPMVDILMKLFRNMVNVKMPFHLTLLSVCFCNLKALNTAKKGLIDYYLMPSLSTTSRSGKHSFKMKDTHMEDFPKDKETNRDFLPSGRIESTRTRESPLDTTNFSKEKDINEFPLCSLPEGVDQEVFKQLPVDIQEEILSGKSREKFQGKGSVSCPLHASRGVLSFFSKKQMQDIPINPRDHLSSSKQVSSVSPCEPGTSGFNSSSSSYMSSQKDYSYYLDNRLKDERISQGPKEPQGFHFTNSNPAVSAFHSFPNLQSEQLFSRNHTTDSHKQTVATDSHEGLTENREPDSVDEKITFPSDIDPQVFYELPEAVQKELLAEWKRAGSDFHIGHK

Each compound was assayed against DNA polymerase iota (Homo sapiens) (UniProt Q9UNA4) (assay: qHTS for Inhibitors of Polymerase Iota). Settings: Pol iota fluorescent replication assay, 10 min; series mostly up to 115 µM; activity, negative = inhibition: at the top concentration.
Procedure, shortened: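 Pol iota at 10 nM preincubated 15 min with compounds at room temperature; reaction started with fluorescent substrate, 50 nM final. Fluorescence read kinetically at 0 and 10 min; buffer-only wells as negative control.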
Potency means the concentration at half of the fitted maximal effect.

Potency, active:
CN(Cc1ccco1)S(=O)(=O)c1nnc(NC(=O)c2ccccc2)s1 44.7 µM, CCOC(=O)Cc1csc(NC(=O)c2sc3nc4c(C)cc(C)cc4cc3c2N)n1 50.1 µM, Cc1c(CC(=O)N2CCN(C(=O)C3COc4ccccc4O3)CC2)c(=O)oc2c(O)c(O)ccc12 (stereo not given) 3.16 µM

Potency, inconclusive:
O=C1NN(c2ccccc2)C(=O)/C1=C/c1coc2ccccc2c1=O 28.2 µM [inhibitor, partial curve, poor fit], Cc1cc(=O)[nH]c2[nH][nH]c(=O)c12 12.6 µM [inhibitor, full curve, poor fit], c1ccc(-c2cn3c4c(sc3n2)CCCC4)cc1 50.1 µM [inhibitor, partial curve, poor fit], Cc1ccccc1NC(=O)Cn1cc(S(=O)(=O)N2CCCC2)c(S(=O)(=O)N2CCCC2)c1 89.1 µM [inhibitor, single point], CCn1ccnc1CN(C)Cc1cn(-c2cccc(C)c2)nc1-c1cccc(F)c1 0.708 µM [inhibitor, full curve, poor fit], CC1CC(C)CN(C(=S)SCc2nc(N)nc(Nc3ccccc3)n2)C1 (stereo not given) 79.4 µM [inhibitor, partial curve, poor fit], O=C(Nc1nnc(S(=O)(=O)N2CCCCCC2)s1)c1ccccc1 39.8 µM [inhibitor, partial curve, poor fit], CC(C)c1ccc(NS(=O)(=O)c2ccc3[nH]cc(C(=O)N4CCC(C(N)=O)CC4)c(=O)c3c2)cc1 2 µM [inhibitor, full curve, poor fit], CC(=O)Nc1ccc2nc(NC(=O)c3ccc([N+](=O)[O-])o3)sc2c1 17.8 µM [inhibitor, full curve], CC(=O)Nc1ccc(N(C(=O)CNC(=O)c2ccco2)C(C(=O)NCc2ccco2)c2ccccc2)cc1 (stereo not given) 79.4 µM [inhibitor, single point], CCOc1ccccc1CNC(=O)c1ccc2c(c1)nc1n2CCC(C)C1 (stereo not given) 0.316 µM [inhibitor, partial curve, poor fit], Cn1cnnc1SCC(=O)Nc1sc2c(c1C(N)=O)CCC2 1.26 µM [inhibitor, full curve, poor fit], O=S(=O)(c1ccc(OC(F)(F)F)cc1)N1CCN(c2nc(-c3ccccc3)nc3ccccc23)CC1 100 µM [inhibitor, partial curve, poor fit], CN(C)C(=O)c1coc2nc3ccccc3nc12 31.6 µM [inhibitor, partial curve, poor fit], O=C(Cn1c(SCC(=O)Nc2ccc(F)cc2)nc2ccccc21)NCc1ccc(Cl)cc1 89.1 µM [inhibitor, single point], O=C(NCCN1C(=O)S/C(=C\c2ccccc2F)C1=O)C1=COCCO1 39.8 µM [inhibitor, partial curve], O=C(Cn1ncc(Cl)c(Cl)c1=O)Nc1ccc2c(c1)OCO2 56.2 µM [inhibitor, partial curve, poor fit], CO[C@@]1(NC(=O)CSCC#N)C(=O)N2C(C(=O)O)=C(CSc3nnnn3C)CS[C@@H]21 2.24 µM [inhibitor, partial curve, poor fit], O=C(Cn1ncc2c3ccccc3n(Cc3cccc(Cl)c3)c2c1=O)NCCC1=CCCCC1 89.1 µM [inhibitor, single point], O=C1Nc2ccccc2C(=O)N2[C@H](c3cccc(Br)c3)[C@@H]3C(=O)N(Cc4ccccc4)C(=O)[C@@H]3[C@H]12 39.8 µM [inhibitor, single point], CC(=O)c1cccc(N=c2scc(-c3ccc(S(=O)(=O)N4CCOCC4)cc3)n2CCO)c1 89.1 µM [inhibitor, partial curve, poor fit], CCn1c(=O)n(CC)c2cc(NC(=O)C(C)c3ccccc3)c(Br)cc21 (stereo not given) 89.1 µM [inhibitor, single point], O=C(/C=C/c1ccco1)NC(=S)Nc1cc(-c2nc3ccccc3s2)ccc1Cl 50.1 µM [inhibitor, partial curve, poor fit], COCCn1c(-c2ccco2)nc2nc3ccccc3nc21 39.8 µM [inhibitor, single point], Cc1csc(SC(C)C(=O)Nc2ccc(Cl)cn2)n1 (stereo not given) 25.1 µM [inhibitor, single point], CCN(C(=O)c1cn(C)c(=O)c2ccccc12)c1cccc(C)c1 100 µM [inhibitor, partial curve, poor fit], CCCOc1ccc(C(NC(=O)CC(C)C)NC(=O)CC(C)C)cc1OC 100 µM [inhibitor, partial curve, poor fit], Oc1ccc(CN2CCCCC2)nc1-c1ccccc1 39.8 µM [inhibitor, partial curve, poor fit]

activity, negative = inhibition, inactive:
COc1ccc(C(=O)Nc2c3c(nn2C(C)(C)C)CS(=O)(=O)C3)cc1OC 140%, CC(=O)NC1=C(C#N)CCC1 17.4%, O=C(Nc1ccc(F)cc1)c1ccc2c(c1)NC(=O)c1ccccc1S2 50%, COCCNC(=O)C(c1ccc(C)cc1)N(C(=O)CCC(=O)Nc1ccccn1)C1CCCCC1 (stereo not given) 4.04%, Cc1[nH]n(-c2ccc(F)cc2)c(=O)c1C=Nc1ccc(S(=O)(=O)N(C)C)cc1 12%, O=C(NCc1ccccc1Cl)c1ccc(NC(=O)N2CCSc3ccccc32)cc1 2.76%, O=C(Nc1ccc(F)c(Cl)c1)C1CCN(S(=O)(=O)c2ccc3c(c2)CCCN3C(=O)C2CCC2)CC1 37.5%, CN(CC(=O)Nc1ccccc1C(F)(F)F)Cc1c(O)ccc2ccccc12 45.1%, Cc1ccc2nc(N=C(N)N)nc(C)c2c1 48.4%
